Some of the results follow.

The chains behind the UniProt entries cited, without tags or fusion partners. Where a name states a change or a piece, a line headed by the entry shows the natural chain unless it says otherwise.
UniProt O95639, whole entry, looked up: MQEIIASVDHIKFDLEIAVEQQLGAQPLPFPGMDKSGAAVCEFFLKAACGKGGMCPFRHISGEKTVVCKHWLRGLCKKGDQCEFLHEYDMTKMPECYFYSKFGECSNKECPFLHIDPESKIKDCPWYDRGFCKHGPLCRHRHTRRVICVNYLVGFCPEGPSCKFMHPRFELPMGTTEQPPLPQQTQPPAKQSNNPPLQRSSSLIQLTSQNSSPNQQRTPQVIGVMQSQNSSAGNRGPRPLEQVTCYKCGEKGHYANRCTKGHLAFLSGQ
UniProt P68400, whole entry, looked up: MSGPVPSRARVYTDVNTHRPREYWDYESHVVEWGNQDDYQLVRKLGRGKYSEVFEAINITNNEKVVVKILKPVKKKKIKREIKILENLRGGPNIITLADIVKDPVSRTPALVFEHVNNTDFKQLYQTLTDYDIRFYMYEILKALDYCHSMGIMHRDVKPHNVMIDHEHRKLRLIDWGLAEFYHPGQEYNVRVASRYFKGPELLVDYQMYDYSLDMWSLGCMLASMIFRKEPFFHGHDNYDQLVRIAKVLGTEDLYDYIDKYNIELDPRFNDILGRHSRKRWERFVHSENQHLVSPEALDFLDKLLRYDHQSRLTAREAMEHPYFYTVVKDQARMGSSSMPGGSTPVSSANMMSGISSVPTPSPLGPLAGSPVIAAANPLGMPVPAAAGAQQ
UniProt Q14061: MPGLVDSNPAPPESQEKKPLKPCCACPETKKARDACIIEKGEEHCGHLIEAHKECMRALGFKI
UniProt P14854, whole entry, looked up: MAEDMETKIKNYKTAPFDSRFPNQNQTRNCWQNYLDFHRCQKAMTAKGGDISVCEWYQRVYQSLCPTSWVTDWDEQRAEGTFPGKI
UniProt P48729: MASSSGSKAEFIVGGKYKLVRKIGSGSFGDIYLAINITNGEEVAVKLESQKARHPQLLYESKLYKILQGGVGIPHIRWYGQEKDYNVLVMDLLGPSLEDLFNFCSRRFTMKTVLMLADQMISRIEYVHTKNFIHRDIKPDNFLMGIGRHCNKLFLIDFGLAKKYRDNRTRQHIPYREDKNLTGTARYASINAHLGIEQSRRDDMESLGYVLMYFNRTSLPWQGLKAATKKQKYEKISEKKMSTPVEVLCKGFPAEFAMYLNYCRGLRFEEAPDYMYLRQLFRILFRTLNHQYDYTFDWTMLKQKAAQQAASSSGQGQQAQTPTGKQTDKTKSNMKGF
UniProt P67870, whole entry, looked up: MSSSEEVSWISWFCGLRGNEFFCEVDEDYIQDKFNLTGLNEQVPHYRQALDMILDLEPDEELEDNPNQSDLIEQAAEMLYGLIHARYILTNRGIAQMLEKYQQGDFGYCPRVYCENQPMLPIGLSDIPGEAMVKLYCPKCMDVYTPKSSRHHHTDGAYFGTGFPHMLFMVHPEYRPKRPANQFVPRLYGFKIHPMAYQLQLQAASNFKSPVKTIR
UniProt Q5RI15: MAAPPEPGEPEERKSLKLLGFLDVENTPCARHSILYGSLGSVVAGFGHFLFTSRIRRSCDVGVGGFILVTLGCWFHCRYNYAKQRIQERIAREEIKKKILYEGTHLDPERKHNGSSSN
UniProt Q8WYA6: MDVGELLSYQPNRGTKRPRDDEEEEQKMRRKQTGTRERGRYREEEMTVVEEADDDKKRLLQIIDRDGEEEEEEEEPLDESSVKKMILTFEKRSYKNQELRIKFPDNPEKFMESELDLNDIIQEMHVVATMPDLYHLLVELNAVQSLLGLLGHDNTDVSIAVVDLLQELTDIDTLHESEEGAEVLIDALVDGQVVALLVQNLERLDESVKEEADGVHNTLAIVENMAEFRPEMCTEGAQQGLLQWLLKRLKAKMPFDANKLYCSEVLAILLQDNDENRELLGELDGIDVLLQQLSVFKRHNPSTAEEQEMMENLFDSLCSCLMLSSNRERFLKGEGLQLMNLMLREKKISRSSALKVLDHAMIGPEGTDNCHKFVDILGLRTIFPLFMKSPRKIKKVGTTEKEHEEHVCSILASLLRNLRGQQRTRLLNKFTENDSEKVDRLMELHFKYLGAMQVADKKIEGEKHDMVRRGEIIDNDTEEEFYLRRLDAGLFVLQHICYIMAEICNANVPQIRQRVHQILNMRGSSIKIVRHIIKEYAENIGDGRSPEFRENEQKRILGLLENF
UniProt Q12996: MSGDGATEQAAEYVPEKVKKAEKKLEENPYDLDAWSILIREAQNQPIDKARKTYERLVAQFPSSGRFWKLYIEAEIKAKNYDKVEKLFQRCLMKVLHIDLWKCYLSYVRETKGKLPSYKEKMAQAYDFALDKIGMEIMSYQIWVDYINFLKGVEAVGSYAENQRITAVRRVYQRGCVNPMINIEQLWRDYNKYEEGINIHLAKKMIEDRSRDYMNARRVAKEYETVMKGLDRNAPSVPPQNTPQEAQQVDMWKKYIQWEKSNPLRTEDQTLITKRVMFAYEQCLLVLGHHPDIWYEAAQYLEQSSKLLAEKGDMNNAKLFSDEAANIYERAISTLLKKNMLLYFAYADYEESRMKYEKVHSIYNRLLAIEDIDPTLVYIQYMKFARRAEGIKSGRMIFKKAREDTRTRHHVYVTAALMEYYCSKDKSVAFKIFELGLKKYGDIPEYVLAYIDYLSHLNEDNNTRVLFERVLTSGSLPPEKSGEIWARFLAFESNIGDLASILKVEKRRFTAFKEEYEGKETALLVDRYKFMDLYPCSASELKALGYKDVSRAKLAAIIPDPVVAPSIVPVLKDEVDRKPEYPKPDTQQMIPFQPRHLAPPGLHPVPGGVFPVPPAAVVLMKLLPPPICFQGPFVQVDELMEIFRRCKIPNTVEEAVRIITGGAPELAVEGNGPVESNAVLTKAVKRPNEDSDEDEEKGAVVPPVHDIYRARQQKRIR
UniProt O75976: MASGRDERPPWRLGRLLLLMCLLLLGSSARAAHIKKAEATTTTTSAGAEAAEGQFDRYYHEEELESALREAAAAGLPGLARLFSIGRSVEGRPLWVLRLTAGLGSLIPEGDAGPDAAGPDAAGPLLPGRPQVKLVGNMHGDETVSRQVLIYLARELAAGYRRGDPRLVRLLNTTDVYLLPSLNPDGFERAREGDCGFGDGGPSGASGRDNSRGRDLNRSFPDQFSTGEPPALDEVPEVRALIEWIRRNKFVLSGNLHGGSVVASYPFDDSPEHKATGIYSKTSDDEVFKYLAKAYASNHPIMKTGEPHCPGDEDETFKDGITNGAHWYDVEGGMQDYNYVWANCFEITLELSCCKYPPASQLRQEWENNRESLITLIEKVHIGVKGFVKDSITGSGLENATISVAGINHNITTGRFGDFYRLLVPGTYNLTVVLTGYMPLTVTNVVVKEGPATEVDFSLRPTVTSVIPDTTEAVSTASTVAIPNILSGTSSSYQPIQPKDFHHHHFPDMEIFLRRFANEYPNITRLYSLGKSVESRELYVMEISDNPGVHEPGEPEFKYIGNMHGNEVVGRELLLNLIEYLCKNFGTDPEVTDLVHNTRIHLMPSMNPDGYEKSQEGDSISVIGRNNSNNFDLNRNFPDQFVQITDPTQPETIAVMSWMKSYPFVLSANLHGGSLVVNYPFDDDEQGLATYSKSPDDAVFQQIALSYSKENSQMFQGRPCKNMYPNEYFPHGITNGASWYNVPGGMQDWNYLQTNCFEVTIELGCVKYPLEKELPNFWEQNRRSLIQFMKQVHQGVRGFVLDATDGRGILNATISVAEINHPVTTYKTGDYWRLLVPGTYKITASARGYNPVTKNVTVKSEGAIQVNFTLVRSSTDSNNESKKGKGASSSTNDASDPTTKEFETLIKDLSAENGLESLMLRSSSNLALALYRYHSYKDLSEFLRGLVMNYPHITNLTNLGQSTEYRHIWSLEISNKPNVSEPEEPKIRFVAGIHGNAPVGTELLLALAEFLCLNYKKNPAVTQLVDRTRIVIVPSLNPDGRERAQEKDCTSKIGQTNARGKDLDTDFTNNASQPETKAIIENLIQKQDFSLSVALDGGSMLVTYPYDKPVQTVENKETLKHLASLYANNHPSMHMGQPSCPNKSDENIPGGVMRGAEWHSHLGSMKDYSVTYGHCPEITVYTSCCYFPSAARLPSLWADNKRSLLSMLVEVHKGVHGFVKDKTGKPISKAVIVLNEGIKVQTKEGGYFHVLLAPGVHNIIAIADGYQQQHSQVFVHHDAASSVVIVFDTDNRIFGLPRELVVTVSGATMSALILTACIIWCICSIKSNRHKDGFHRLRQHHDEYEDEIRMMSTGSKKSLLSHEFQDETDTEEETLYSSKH
UniProt Q9BSW2: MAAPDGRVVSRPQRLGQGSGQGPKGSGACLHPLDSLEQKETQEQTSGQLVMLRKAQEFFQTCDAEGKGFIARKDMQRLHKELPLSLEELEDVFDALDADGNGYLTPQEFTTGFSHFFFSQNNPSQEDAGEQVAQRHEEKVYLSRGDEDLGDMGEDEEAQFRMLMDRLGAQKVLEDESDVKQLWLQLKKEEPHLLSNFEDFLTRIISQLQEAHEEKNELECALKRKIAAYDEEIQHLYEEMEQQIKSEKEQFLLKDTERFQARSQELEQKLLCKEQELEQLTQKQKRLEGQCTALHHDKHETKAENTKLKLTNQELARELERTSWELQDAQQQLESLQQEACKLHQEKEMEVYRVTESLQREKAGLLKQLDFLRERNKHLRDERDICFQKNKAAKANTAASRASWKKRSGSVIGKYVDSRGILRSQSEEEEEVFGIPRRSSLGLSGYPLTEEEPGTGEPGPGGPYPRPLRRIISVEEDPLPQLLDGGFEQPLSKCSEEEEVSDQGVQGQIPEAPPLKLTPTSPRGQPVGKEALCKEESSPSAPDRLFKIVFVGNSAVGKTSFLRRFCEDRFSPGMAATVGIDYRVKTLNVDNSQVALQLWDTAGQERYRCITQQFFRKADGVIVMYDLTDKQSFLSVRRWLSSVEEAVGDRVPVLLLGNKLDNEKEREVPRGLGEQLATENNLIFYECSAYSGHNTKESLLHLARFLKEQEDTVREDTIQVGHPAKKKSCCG
UniProt Q92828: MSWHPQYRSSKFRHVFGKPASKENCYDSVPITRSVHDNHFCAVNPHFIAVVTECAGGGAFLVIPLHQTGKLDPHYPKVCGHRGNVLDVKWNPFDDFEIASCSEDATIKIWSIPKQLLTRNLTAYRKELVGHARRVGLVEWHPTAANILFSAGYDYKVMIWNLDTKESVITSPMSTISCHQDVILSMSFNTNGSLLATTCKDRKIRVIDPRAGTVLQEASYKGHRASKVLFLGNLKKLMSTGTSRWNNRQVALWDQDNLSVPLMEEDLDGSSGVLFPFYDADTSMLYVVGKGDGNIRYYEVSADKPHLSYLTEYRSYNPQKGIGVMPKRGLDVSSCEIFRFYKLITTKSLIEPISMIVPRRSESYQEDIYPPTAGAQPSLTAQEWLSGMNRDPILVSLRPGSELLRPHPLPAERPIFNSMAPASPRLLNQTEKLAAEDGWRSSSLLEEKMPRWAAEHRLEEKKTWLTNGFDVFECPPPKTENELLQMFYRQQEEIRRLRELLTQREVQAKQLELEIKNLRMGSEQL
UniProt P50238: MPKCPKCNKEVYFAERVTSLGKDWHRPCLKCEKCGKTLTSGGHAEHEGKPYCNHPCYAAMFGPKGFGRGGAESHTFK
UniProt P55060: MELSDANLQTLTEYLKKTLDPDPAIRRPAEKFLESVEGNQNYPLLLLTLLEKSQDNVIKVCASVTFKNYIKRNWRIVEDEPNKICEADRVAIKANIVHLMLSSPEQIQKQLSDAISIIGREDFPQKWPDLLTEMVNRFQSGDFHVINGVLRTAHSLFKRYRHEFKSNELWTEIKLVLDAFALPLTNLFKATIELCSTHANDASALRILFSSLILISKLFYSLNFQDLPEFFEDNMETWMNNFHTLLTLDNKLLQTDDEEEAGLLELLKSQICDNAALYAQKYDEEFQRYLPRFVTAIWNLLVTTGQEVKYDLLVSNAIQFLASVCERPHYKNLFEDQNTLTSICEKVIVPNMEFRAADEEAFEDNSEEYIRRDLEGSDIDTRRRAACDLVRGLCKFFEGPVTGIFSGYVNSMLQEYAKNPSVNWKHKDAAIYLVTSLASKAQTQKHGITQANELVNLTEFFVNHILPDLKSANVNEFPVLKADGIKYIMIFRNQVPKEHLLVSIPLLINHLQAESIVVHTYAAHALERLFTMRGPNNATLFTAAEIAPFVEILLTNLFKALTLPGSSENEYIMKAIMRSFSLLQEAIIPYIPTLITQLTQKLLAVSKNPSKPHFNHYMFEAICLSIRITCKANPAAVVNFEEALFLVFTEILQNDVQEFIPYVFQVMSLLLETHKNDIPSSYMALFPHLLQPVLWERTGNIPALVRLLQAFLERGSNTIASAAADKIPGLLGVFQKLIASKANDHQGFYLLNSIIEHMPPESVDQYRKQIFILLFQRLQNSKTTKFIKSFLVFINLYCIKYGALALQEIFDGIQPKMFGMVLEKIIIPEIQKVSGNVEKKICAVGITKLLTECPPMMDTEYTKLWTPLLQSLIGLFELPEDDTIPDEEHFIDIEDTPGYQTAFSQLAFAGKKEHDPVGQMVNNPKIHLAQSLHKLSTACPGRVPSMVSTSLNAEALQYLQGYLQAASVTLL

The results in this text go back to the supplement of paper PMC12067093, “Discovery and optimisation of a covalent ligand for TRIM25 and its application to targeted protein ubiquitination” (Chemical Science, 2025).
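Further: competitive profiling in live THP-1 cells: cysteine peptides tagged with an iodoacetamide desthiobiotin (IA-DTB) probe, intensity after compound treatment relative to DMSO-treated cells.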

Compound in one assay: Cc1cc(ccc1-c1ccccc1)C(=O)N1CCCN(CC1)C(=O)CCl [compound 10]
In words: probe-labelled cysteine peptide fold change vs DMSO (competition) (log2 fold change); higher = less target engagement (more negative = stronger competition). Particulars: 10 µM; THP-1; incubation time: 4 h.
In the case of “CSK_P41240_164_LSIDEEVYFENLMQLVEHYTSDADGLCTR (UniProt P41240)”, the “probe-labelled cysteine peptide fold change” value is -0.0333.
Still for that read-out and setting: next, “CTC1_Q2NKJ3_535_NAHNEILEEPHHCPLQK (UniProt Q2NKJ3)”: -0.144.
Still for that read-out and setting: next, “CPSF4_O95639_162_RVICVNYLVGFCPEGPSCK (UniProt O95639)”: -0.239; “CORO1B_Q9BR76_41_VTWDSTFCAVNPK (UniProt Q9BR76)”: -0.0689.
On the same count and under the same terms, next, “CRYBG1_Q9Y4K1_503_GCVLPVSR (UniProt Q9Y4K1)”: -0.327; “CPSF2_Q9P2I0_522_CISTTESIEIK (UniProt Q9P2I0)”: -0.219.
For “CSNK2A1_P68400_147_ALDYCHSMGIMHR (UniProt P68400)”, the “probe-labelled cysteine peptide fold change” value was 0.22.
The same measure, in the same setting: for “CSK_P41240_422_NCWHLDAAMR (UniProt P41240)” the value was 0.0895; for “CTDP1_Q9Y5B0_277_DECIDPFSK (UniProt Q9Y5B0)”, -0.165.
On to “COX17_Q14061_45_GEEHCGHLIEAHK (UniProt Q14061)”, for which the “probe-labelled cysteine peptide fold change” value turned out to be 0.354.
In the case of “CPNE1_Q99829_30_SDPLCVLLQDVGGGSWAELGR (UniProt Q99829)”, the “probe-labelled cysteine peptide fold change” value was 0.326.
Same read-out and setting: for “COX6B1_P14854_54_GGDISVCEWYQR (UniProt P14854)” the value was -0.526.
The same measure, in the same setting: for “CSMD2_Q7Z408-3_2_CDAHLR (UniProt Q7Z408)” the value was 0.077; for “CSNK1A1_P48729_249_MSTPVEVLCK (UniProt P48729)”, -0.234.
Still for that read-out and setting: for “CSDE1_O75534_657_FQLCVLGQNAQTMAYNITPLRR (UniProt O75534)” the value was -0.163; for “CSNK2B_P67870_109_YQQGDFGYCPR (UniProt P67870)”, 0.117.
“CSRP1_P21291_40_SCFLCMVCK (UniProt P21291)”: the “probe-labelled cysteine peptide fold change” value was found to be 0.000679.
The same measure, in the same setting: for “CPOX_P36551_304_EACDQHGPDLYPK (UniProt P36551)” the value was -0.0942.
As for “COX20_Q5RI15_29_LLGFLDVENTPCAR (UniProt Q5RI15)”, the “probe-labelled cysteine peptide fold change” value was -0.0256.
Same read-out and setting: for “CRTAP_O75718_243_AFYECLAACEGSR (UniProt O75718)” the value was -0.0148.
Still for that read-out and setting: for “CORO7_P57737_695_CLLVSGFDSQSER (UniProt P57737)” the value was 0.484; for “CTNNBL1_Q8WYA6_370_VLDHAMIGPEGTDNCHK (UniProt Q8WYA6)”, -0.00299; for “CPOX_P36551_319_WCDDYFFIAHR (UniProt P36551)”, 0.0777.
On the same count and under the same terms, for “CSTF3_Q12996_536_FMDLYPCSASELK (UniProt Q12996)” the value was -0.0224; for “CPD_O75976_195_EGDCGFGDGGPSGASGR (UniProt O75976)”, 0.18; for “CRACR2A_Q9BSW2-2_494_CSEEEEVSDQGVQGQIPEAPPLK (UniProt Q9BSW2)”, -0.0427.
“CRELD2_Q6UXH1_120_SEYPDLFEWFCVK (UniProt Q6UXH1)”: the “probe-labelled cysteine peptide fold change” value worked out at 0.199.
In the case of “COX17_Q14061_23+24_KPLKPCCACPETK (UniProt Q14061)”, the “probe-labelled cysteine peptide fold change” value was -0.321.
“CORO2A_Q92828_474_TWLTNGFDVFECPPPK (UniProt Q92828)”: the “probe-labelled cysteine peptide fold change” value worked out at 0.177.
Same read-out and setting: next, “CORO1B_Q9BR76_25_NDQCYEDIR (UniProt Q9BR76)”: -0.0464; “CSDE1_O75534_42_LLTSYGFIQCSER (UniProt O75534)”: 0.0219.
The same measure, in the same setting: for “CTCF_P49711_155_EGLAESEPMICHTLPLPEGFQVVK (UniProt P49711)” the value was -0.325.
On the same count and under the same terms, next, “CRIP2_P52943_57_PCYATLFGPK (UniProt P52943)”: 0.019; “CPSF1_Q10570_983_LHPMAIDGPVDSFAPFHNVNCPR (UniProt Q10570)”: -0.0556.
With “CRIP1_P50238_56_PYCNHPCYAAMFGPK (UniProt P50238)”, the “probe-labelled cysteine peptide fold change” value was 0.123.
On the same count and under the same terms, for “CRELD1_Q96HD1_343_QMEGICVK (UniProt Q96HD1)” the value was -0.0756.
On the same count and under the same terms, next, “CRYBG1_Q9Y4K1_541_SPEAVGSECPSR (UniProt Q9Y4K1)”: -0.333; “CSE1L_P55060_325_YDLLVSNAIQFLASVCERPHYK (UniProt P55060)”: 0.202; “CRELD1_Q96HD1_105_SDFECHR (UniProt Q96HD1)”: -0.0218.
For “CSE1L_P55060_344_NLFEDQNTLTSICEK (UniProt P55060)”, the “probe-labelled cysteine peptide fold change” value is -0.186.

The same assay, now with this note: 50 µM; THP-1; incubation time: 4 h.
Turning to “CSK_P41240_164_LSIDEEVYFENLMQLVEHYTSDADGLCTR (UniProt P41240)”, the “probe-labelled cysteine peptide fold change” value turned out to be 0.0201.
As to “CTC1_Q2NKJ3_535_NAHNEILEEPHHCPLQK (UniProt Q2NKJ3)”, the “probe-labelled cysteine peptide fold change” value was -0.283.
Regarding “CPSF4_O95639_162_RVICVNYLVGFCPEGPSCK (UniProt O95639)”, the “probe-labelled cysteine peptide fold change” value came to 0.014.
The same measure, in the same setting: next, “CORO1B_Q9BR76_41_VTWDSTFCAVNPK (UniProt Q9BR76)”: 0.0432.
On the same count and under the same terms, next, “CRYBG1_Q9Y4K1_503_GCVLPVSR (UniProt Q9Y4K1)”: -0.294; “CPSF2_Q9P2I0_522_CISTTESIEIK (UniProt Q9P2I0)”: -0.0672; “CSNK2A1_P68400_147_ALDYCHSMGIMHR (UniProt P68400)”: 0.316.
In the case of “CSK_P41240_422_NCWHLDAAMR (UniProt P41240)”, the “probe-labelled cysteine peptide fold change” value is 0.247.
Same read-out and setting: next, “CTDP1_Q9Y5B0_277_DECIDPFSK (UniProt Q9Y5B0)”: -0.467.
On the same count and under the same terms, next, “COX17_Q14061_45_GEEHCGHLIEAHK (UniProt Q14061)”: 0.15; “CPNE1_Q99829_30_SDPLCVLLQDVGGGSWAELGR (UniProt Q99829)”: 0.0741.
As to “COX6B1_P14854_54_GGDISVCEWYQR (UniProt P14854)”, the “probe-labelled cysteine peptide fold change” value is -0.0457.
Same read-out and setting: next, “CSMD2_Q7Z408-3_2_CDAHLR (UniProt Q7Z408)”: -2.14.
As for “CSNK1A1_P48729_249_MSTPVEVLCK (UniProt P48729)”, the “probe-labelled cysteine peptide fold change” value was -0.0487.
Turning to “CSDE1_O75534_657_FQLCVLGQNAQTMAYNITPLRR (UniProt O75534)”, the “probe-labelled cysteine peptide fold change” value is -0.129.
As for “CSNK2B_P67870_109_YQQGDFGYCPR (UniProt P67870)”, the “probe-labelled cysteine peptide fold change” value turned out to be 0.0278.
For the target “CSRP1_P21291_40_SCFLCMVCK (UniProt P21291)”, the “probe-labelled cysteine peptide fold change” value was -0.0607.
The same measure, in the same setting: next, “CPOX_P36551_304_EACDQHGPDLYPK (UniProt P36551)”: -0.0866; “COX20_Q5RI15_29_LLGFLDVENTPCAR (UniProt Q5RI15)”: -0.0857; “CRTAP_O75718_243_AFYECLAACEGSR (UniProt O75718)”: 0.256.
On to “CORO7_P57737_695_CLLVSGFDSQSER (UniProt P57737)”, for which the “probe-labelled cysteine peptide fold change” value is -0.508.
Still for that read-out and setting: for “CTNNBL1_Q8WYA6_370_VLDHAMIGPEGTDNCHK (UniProt Q8WYA6)” the value was -0.134.
The same measure, in the same setting: next, “CPOX_P36551_319_WCDDYFFIAHR (UniProt P36551)”: 0.126.
Still for that read-out and setting: for “CSTF3_Q12996_536_FMDLYPCSASELK (UniProt Q12996)” the value was 0.0893; for “CPD_O75976_195_EGDCGFGDGGPSGASGR (UniProt O75976)”, 0.211.
In the case of “CRACR2A_Q9BSW2-2_494_CSEEEEVSDQGVQGQIPEAPPLK (UniProt Q9BSW2)”, the “probe-labelled cysteine peptide fold change” value was -0.0955.
Same read-out and setting: for “CRELD2_Q6UXH1_120_SEYPDLFEWFCVK (UniProt Q6UXH1)” the value was -0.0635; for “COX17_Q14061_23+24_KPLKPCCACPETK (UniProt Q14061)”, -2.25; for “CORO2A_Q92828_474_TWLTNGFDVFECPPPK (UniProt Q92828)”, 0.219.
As to “CORO1B_Q9BR76_25_NDQCYEDIR (UniProt Q9BR76)”, the “probe-labelled cysteine peptide fold change” value is -0.0083.
On to “CSDE1_O75534_42_LLTSYGFIQCSER (UniProt O75534)”, for which the “probe-labelled cysteine peptide fold change” value was -0.185.
As to “CTCF_P49711_155_EGLAESEPMICHTLPLPEGFQVVK (UniProt P49711)”, the “probe-labelled cysteine peptide fold change” value was -0.277.
The same measure, in the same setting: next, “CRIP2_P52943_57_PCYATLFGPK (UniProt P52943)”: -0.567; “CPSF1_Q10570_983_LHPMAIDGPVDSFAPFHNVNCPR (UniProt Q10570)”: 0.0917; “CRIP1_P50238_56_PYCNHPCYAAMFGPK (UniProt P50238)”: -0.154.
As for “CRELD1_Q96HD1_343_QMEGICVK (UniProt Q96HD1)”, the “probe-labelled cysteine peptide fold change” value was -0.108.
The same measure, in the same setting: for “CRYBG1_Q9Y4K1_541_SPEAVGSECPSR (UniProt Q9Y4K1)” the value was -0.462; for “CSE1L_P55060_325_YDLLVSNAIQFLASVCERPHYK (UniProt P55060)”, 0.0501.
Still for that read-out and setting: for “CRELD1_Q96HD1_105_SDFECHR (UniProt Q96HD1)” the value was 0.227; for “CSE1L_P55060_344_NLFEDQNTLTSICEK (UniProt P55060)”, -0.107.
